The results are deposited in PubChem (AID912; NCATS, 2007).

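A cell-based FRET test of anthrax lethal toxin entry, tracked through the 460 nm emission signal; the cell line is not named here. Each compound was tested as a concentration series from about 0.0005 to 40 µM. The number is the fitted AC50 of the 460 nm signal alone; lower values mean a more potent effect. A falling signal goes with compounds filed as inhibitors or cytotoxic, a rising one with activators or fluorescent compounds (inferred from the filed classes).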

Values are in µM. Common to all entries: measured here: 460 nm channel. Part of the compounds only, not a random draw; the main read-out is not listed here. Potencies fitted to partial, single-point or poorly fitting curves are rough. The first word of each remark tells which way the curve ran; it can be opposite to the aim of the assay.

Result for COC(=O)[C@@]1(Cc2ccc(OC)cc2)[C@H]2c3cc(C(=O)N(C)C)n(Cc4ccc(O)c(OC)c4)c3C[C@H]2CN1C(=O)c1ccccc1 was AC50 10 µM (rising, single point). CCN(Cc1ccccc1)C(c1cccc(C#N)c1)c1nnnn1C(C)(C)C (stereo not shown) gave AC50 19.95 µM (falling, partial curve, poor fit). COC(=O)Cc1cc(=O)n(-c2nc3ccccc3[nH]2)[nH]1 read AC50 0.003981 µM (falling, full curve, poor fit). O=C(CSc1nnc(-c2cc3ccccc3cc2O)n1Cc1ccco1)c1ccc(F)cc1 read AC50 10 µM (falling, single point).

With O=C(Nc1nc2c(s1)CCc1ccccc1-2)c1ccco1 the assay gave AC50 5.012 µM (rising, single point). COc1ccc(NC(=O)Nc2nnc(C(C)C)s2)cc1 gave AC50 10 µM (falling, partial curve, poor fit). For CCN1CCN(Cc2c(O)c(Cl)cc3c(C)cc(=O)oc23)CC1 the result was AC50 6.31 µM (rising, partial curve, poor fit). C=CCc1ccc(OCC(O)CN2CCCCC2C)c(OC)c1 (stereo not shown) read AC50 10 µM (falling, single point).

Result for Cc1nc(N2CCN(Cc3ccc4c(c3)OCO4)CC2)nc2c1C(=O)CC(c1ccco1)C2 (stereo not shown) was AC50 7.943 µM (rising, partial curve). COc1ccccc1NC(=O)N1CCCC(c2nc3c(nnn3Cc3ccc(C)cc3)c(=O)[nH]2)C1 (stereo not shown) read AC50 10 µM (rising, partial curve). Cc1ccc(OCc2ccc(C(=O)Nc3nccs3)o2)cc1 gave AC50 25.12 µM (rising, single point). O=C1C2CC=CCC2C(=O)N1SC(Cl)(Cl)Cl (stereo not shown) gave AC50 3.162 µM (falling, full curve).

For COc1ccc2nc3c(cc2c1)c(NC(=O)C1CCCO1)nn3CC(C)C (stereo not shown) the result was AC50 7.943 µM (rising, partial curve). With COCCOC(=O)c1c(C)oc2ccc(OCc3cc(C(=O)OC)oc3C)cc12 the assay gave AC50 0.1995 µM (falling, partial curve). For CC12CN3CCN(CC(C3)C1(O)CN1CCOCC1)C2 (stereo not shown) the result was AC50 0.1259 µM (falling, full curve). COc1ccccc1N1CCN(C(=O)c2ccc3nc(-c4ccco4)c(-c4ccco4)nc3c2)CC1 read AC50 31.62 µM (rising, single point).

COc1ccc(-c2nc3cnc(Nc4cccc(OC)c4)nc3n(Cc3cccs3)c2=O)cc1 read AC50 0.1 µM (rising, full curve). Result for Nc1c(C(=O)NC2CCCCC2)c2nc3ccccc3nc2n1/N=C/c1ccco1 was AC50 2.512 µM (rising, partial curve). COc1ccc(CN(C(=O)CN2C(=O)COc3ccccc32)C2CCCC2)c(OC)c1 gave AC50 12.59 µM (rising, single point). COc1ccc(OC)c(S(=O)(=O)N2CCN(c3c(C)cccc3C)CC2)c1 gave AC50 12.59 µM (falling, partial curve).

CC(C)C[C@H](NC(=O)N1CCCCCC1)C(=O)N[C@H](Cc1cn(C)c2ccccc12)C(=O)N[C@H](Cc1ccccn1)C(=O)O gave AC50 31.62 µM (falling, single point). COc1ccccc1-c1cc(C(=O)NCc2ccccc2)no1 read AC50 0.03981 µM (falling, full curve, poor fit). Nc1cccc(N=Cc2c(O)n(Cc3ccc(F)cc3)c(=O)[nH]c2=O)c1 gave AC50 2.512 µM (falling, partial curve, poor fit). For CCSC1(SCC)N=C(N)C2(C#N)C(c3ccc(OC)c(OC)c3OC)C12C#N (stereo not shown) the result was AC50 6.31 µM (falling, partial curve).

For CCOC(=O)c1c(NS(=O)(=O)c2cccc(OC)c2)sc2c1CCC2 the result was AC50 5.012 µM (falling, full curve).

Some entries from above, unchanged:

Compound,AC50 (µM),curve
COc1ccc(-c2nc3cnc(Nc4cccc(OC)c4)nc3n(Cc3cccs3)c2=O)cc1,0.1,"rising, full curve"
COc1ccc(CN(C(=O)CN2C(=O)COc3ccccc32)C2CCCC2)c(OC)c1,12.59,"rising, single point"